# Primary screen of a compound library

Source: ChEMBL document CHEMBL3988442, “University of Dundee, Small-Polar-MMV Screening Library” (2021).

Each number is a percent effect as filed.
The controls that fix the scale are not given in the record; negative values are as filed.
The compounds are a random part of those screened.
Two or more numbers in one place are separate tests of the same structure; such repeats can differ widely.

A: 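Growth of Mycobacterium tuberculosis over 3 days (7H9 medium with glucose and tyloxapol); the read-out is not stated. Compounds at 50 µM. Higher reads as more growth inhibition (inferred: compounds with an IC50 in retests scored well above the rest). Size under these conditions: about 69,000 compounds, about 760 of them at 50% or above in at least one test.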
B: 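Growth of Mycobacterium tuberculosis over 4 days (cholesterol / DPPC medium with tyloxapol); the read-out is not stated. Concentration: 50 µM. Direction is inferred from retests: higher values go with more growth inhibition. Size under these conditions: about 69,000 compounds, about 370 of them at 50% or above in at least one test.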

For OC1(CN2CCCC2)CCCN(Cc2cnc(-c3ccccc3)nc2)C1 (centres undefined) the result was A: -1.246% & 29.9%; B: -18.48%. CNc1nc(C(=O)N2CCCC(c3nccn3CC3CCC3)C2)cs1 (centres undefined) read A: -0.6416% & -14.22%; B: -0.4043%. For CC(C)OCc1ccc(CNc2cncc(-n3cccn3)n2)cc1 the result was A: 43.54%; B: 50.64%. With COc1cccn(CC(=O)N(C)CCC2CCOCC2)c1=O the screen gave A: -68.12%; B: 100.4%. With CN(Cc1ccc2c(c1)OCO2)Cc1nc2c(cnn2C)c(=O)[nH]1 the screen gave A: 3.402%; B: 6.717%.

For CCCS(=O)(=O)N1CCC(NC(=O)c2cc3ccccc3s2)CC1 the result was A: 5.106%; B: -8.099% & -0.2065%. Result for CC(C)CCC(=O)NCC(=O)N1CCCCCC1c1ccco1 (centres undefined) was A: 34.49% & 38.37%; B: 23.73%. Result for [H][C@]12CC[C@]([H])(CN(C3CCOCC3)C1)N(C(=O)c1csc(NC)n1)C2 was A: -19.38%; B: 4.715% & -10.99%. O=C(O)CSc1nnc(-c2ccn[nH]2)n1-c1cccc(C(F)(F)F)c1 read A: -20.29%; B: -35.98%. CN1CC(C(=O)N(C)Cc2cc(-c3cccnc3)no2)NC1=O (centres undefined) gave A: -3.414%; B: -12.8%.

With O=C(C1CC(=O)N(c2ccccc2)C1)N1CCC2(CC1)OCCO2 (centres undefined) the screen gave A: -2.844% & 20.8%; B: -2.011%. For COc1ccc(OC)c(C2CCN(C(=O)[C@H]3CC[C@@H](O)CC3)C2)c1 (some centres undefined) the result was A: 1.773%; B: -5.043%. CN(C)Cc1nn(C)c2c1CN(C(=O)Nc1ccc(F)cc1)C2 read A: -5.308% & -15.13%; B: 9.398%. Result for CCN(C)Cc1cnc(S(=O)(=O)CC)n1CCOC was A: -6.752%; B: -17.01%. CC(C)Oc1ccccc1C(=O)NCCc1nncn1C gave A: -15.46% & 7.696%; B: 8.026%.

With O=C1CCCN1CCC1CCN(C2CCC3(CCNCC3)CC2)CC1 the screen gave A: 19.15%; B: -12.2% & -4.28%. Result for CN1CCN(Cc2nnc(C3CCN(CC4CC4)CC3)n2C)CC1 was A: 2.53% & -2.749%; B: 6.19%. With CCN(C)CC1CCN(c2ncc(Br)cn2)C1 (centres undefined) the screen gave A: -7.373% & 2.071%; B: -5.971%. For O=C(NCCn1ccnc1)N1CCN(c2nccs2)CC1 the result was A: -15.89%; B: -7.013%. CC(Cn1cccn1)NC(=O)N1CCN(Cc2ccco2)CC1 (centres undefined) gave A: 10.15%; B: -17.86%.

[H][C@@]12CS(=O)(=O)C[C@]1([H])N(C(=O)c1ccc3c(c1)ncn3C)CCN2CCO read A: -25.17% & -6.077%; B: -12.52%. Result for NC(=O)C1CCN(c2nc3nccc(-c4ccccn4)c3c(=O)[nH]2)CC1 was A: -6.708% & -2.354%; B: -9.979%. Result for COCCN(C)C[C@H]1C[C@@H](CO)CN(C(=O)c2ccn(C)c(=O)c2)C1 was A: -7.114%; B: 7.772% & 8.95%. [H][C@@]12CCC(=O)N(CCC3=CCCCC3)[C@]1([H])CCN(Cc1cnn(C)c1)C2 gave A: 67.05%; B: 0.8955%. For CN(C)Cc1cccc(-c2cccnc2C(=O)NCC2CC2)c1 the result was A: -2.705%; B: -2.793% & -7.883%.

For COCCCC(=O)Nc1cc(Cl)c(Cl)cn1 the result was A: 17.21%; B: 4.721%. For Cc1ccccc1CN1CCN(c2ncnc3c2NC(=O)CN3)CC1 the result was A: 4.82%; B: 4.349%. For CCOCC1CN(C(=O)CS(C)(=O)=O)Cc2cnn(C)c21.O=C(O)C(F)(F)F (centres undefined) the result was A: 3.241%; B: 16.24%. For O=C(NCCNc1ncccn1)N1CCCC1c1ccncc1 (centres undefined) the result was A: 21.09%; B: -4.523%. COc1cc(NCC(c2ccccn2)N(C)C)ncn1 (centres undefined) gave A: -50.18%; B: -1.76%.

For CN(C)c1cnn(CC(=O)N2CCN(Cc3cccs3)CC2)c(=O)c1 the result was A: 20.95%; B: 24.49%. CN(Cc1cc(C2CC2)on1)C(=O)C(c1cccnc1)N1CCCC1 (centres undefined) read A: -11.28%; B: 2.593%. With O=C(O)CCn1ccc2cc(Br)ccc21 the screen gave A: -25.19%; B: -9.643%. For CCC(=O)Nc1ccc2c(ccn2CC(=O)N(CC)CC)c1 the result was A: 16.35%; B: -2.209%. CC(O)CCN(C)C(=O)Nc1cccc(F)c1 (centres undefined) read A: 1.739% & 4.021%; B: -10.7%.

For CC(C)(C)C(=O)NCCC(=O)NS(=O)(=O)c1cccc(C#N)c1 the result was A: -8.289% & -2.161%; B: 5.13%. Cc1nc[nH]c1CNC1CC(=O)N(CCc2cccc(Cl)c2)C1 (centres undefined) gave A: -9.873%; B: 0.894%. Result for [H][C@@]12CCN(C[C@@H]1CN(C)CCN(C)C)[C@@H](CNC(=O)Nc1ccsc1)C2 was A: -2.683% & 7.358%; B: 11.06%. Cc1ccc(-c2cc(-c3c(C)nn(CCO)c3C)c(C#N)c(N)n2)cc1 read A: 7.726%; B: -9.206%. For CC(C)C(=O)NCc1ccc(N(C)C)cc1 the result was A: 9.168%; B: 1.729%.